In PubChem BioAssay AID2685 (National Center for Advancing Translational Sciences (NCATS), 2010):
This is one part of the list. The main result of the screen is listed elsewhere. These columns were measured beside it and carry no call. The list favours compounds with an active or inconclusive main result. The note in brackets gives the kind of curve behind each potency; many fits are weak.

Assay: qHTS Assay for Lipid Storage Modulators in Drosophila S3 Cells;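 as to cell number change: cells counted by Cell Tracker Red CMTPX staining in the red channel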
Conditions: BODIPY lipid droplet fluorescence, 18-24 h; for cell number change: measured here: cell count max response, cells fed with added oleic acid
Outline: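 Drosophila S3 cells loaded with oleic acid (400 uM, as added) and compounds at several concentrations; lipid droplets imaged by 488-nm laser-scanning cytometry, 500–530 nm intensity and object ratio to cell channel. Percent activity normalized to 20 uM Triacsin C.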

[1] = measured here: lipid fluorescence (Fed channel) AC50, cells fed with added oleic acid
[2] = measured here: cell number channel AC50, cells fed with added oleic acid

Structure (SMILES)	cell number change [%]	AC50 [1]	AC50 [2]
COc1ccc2oc(-c3ccccc3)c(C(=O)N(C)C)c2c1	-0.276	1.84 µM [rising, partial curve]	
COc1ccc(CCNCC(O)COc2ccc(OC)cc2C(C)(C)C)cc1 (stereo not given)	-8.82	20.6 µM [falling, single point]	
O=C(Nc1ccc(NC(=O)c2cccs2)cc1)c1ccc2c(c1)OCO2	-18.7	0.146 µM [falling, full curve, poor fit]	
O=C(NNC(=O)c1ccccc1[N+](=O)[O-])c1ccccc1[N+](=O)[O-]		5.8 µM [rising, single point]	
NS(=O)(=O)c1ccc(CCNC(=O)Nc2ccc(Cl)cc2)cc1	-9.73	0.103 µM [rising, full curve, poor fit]	
O=C(c1ccco1)N1CCN(c2ncnc3c2[nH]c2ccccc23)CC1		0.517 µM [falling, single point]	
CCOCCCNC(=O)CCc1ccc(S(=O)(=O)Nc2ccc(C)cc2)cc1	-5.2		
COc1ccc(NC(=O)c2ccccc2)cc1NS(=O)(=O)c1ccc(F)cc1	13.7	2.06 µM [rising, partial curve]	
O=C1C(Cl)=C(N2CCOCC2)C(=O)N1c1ccccc1	-19	4.61 µM [falling, full curve, poor fit]	
Cn1c(=O)c2sccc2n2c(CCCC(=O)N3CCCCC3)nnc12		14.6 µM [falling, partial curve]	
O=C(Nc1cccc(C(F)(F)F)c1)c1cccnc1NCCO		3.66 µM [falling, full curve]	
CCOc1ccc(C(=O)Nc2ccccc2NC(C)=O)cc1OCC	13		
COc1ccc(C(=O)NC(=S)NNC(=O)c2c(-c3ccccc3)noc2C)cc1	-1.45		
CC(=O)N/C(=N\c1nc(C)cc(C)n1)Nc1ccc(Cl)cc1Cl	-45.1		29.1 µM [falling, single point]
COc1ccc(CNC(=O)CN(C)Cc2ccc(C(C)(C)C)cc2)cc1	-34.1	18.4 µM [falling, single point]	29.1 µM [falling, single point]
COCC(=O)Nc1nc(-c2ccccc2)c(C)s1	-37.2	6.51 µM [falling, partial curve, poor fit]	10.3 µM [falling, partial curve]
CCOC(=O)C1CCCN(C(=O)c2cc(CN3C(=O)c4ccccc4C3=O)ccc2OC)C1 (stereo not given)	-25	2.91 µM [falling, partial curve]	6.51 µM [rising, partial curve]
CC(=O)c1sc(NC(=O)COc2ccccc2)nc1C		0.00461 µM [rising, full curve, poor fit]	0.00461 µM [rising, full curve, poor fit]
CCOc1cc(/C=N/NC(=O)c2ccc(-c3csc(Nc4ccc(C)cc4)n3)cc2)ccc1OCC(=O)O	18.7		1.84 µM [rising, full curve, poor fit]

Structure (SMILES)	cell number change [%]	AC50 [1]	AC50 [2]
O=C(CSc1ncccn1)Nc1cccc2ccccc12	20.3	4.11 µM [rising, full curve]	
COc1cccc(-c2c(C(=O)N/N=C(\C)c3ccc(Cl)s3)nnn2-c2nonc2N)c1	19.8	6.51 µM [rising, single point]	
Fc1cccc(NC(=S)N2CCN(c3ccccn3)CC2)c1	-20.1	0.082 µM [rising, full curve, poor fit]	
CCOC(=O)C1CCCN(C(=O)c2ccc3c(=O)n(Cc4ccccc4OC)c(=S)[nH]c3c2)C1 (stereo not given)	-15	29.1 µM [falling, single point]	2.31 µM [rising, partial curve, poor fit]
O=C(NCC(=O)N1CCCCCCC1)c1ccc(Br)o1	32.8	5.17 µM [rising, partial curve, poor fit]	10.3 µM [rising, partial curve, poor fit]
O=C(Cn1cnc2ccccc21)Nc1ccc(SC(F)F)cc1	-38.7		0.00461 µM [falling, full curve, poor fit]
CCOC(=O)CSc1nnc(CNC(=O)c2ccc(OC)c(OC)c2)n1C	-75.9	29.1 µM [falling, single point]	7.31 µM [falling, partial curve]
COc1ccc(C)cc1NC(=O)c1nn(-c2ccccc2)cc1OC	32.9	0.164 µM [rising, full curve, poor fit]	
CC(C)c1nnc(NC(=O)c2nc(S(=O)(=O)Cc3ccccc3F)ncc2Cl)s1		0.651 µM [falling, partial curve, poor fit]	
CNC(=O)C(=O)N/N=C/c1ccc(Br)cc1	-45.6	0.092 µM [falling, partial curve, poor fit]	29.1 µM [falling, partial curve, poor fit]
CCOc1ccc(-n2nnc3c(=O)n(CC(=O)Nc4cc(C)on4)cnc32)cc1			0.259 µM [rising, single point]
N#Cc1c(NC(=O)C2CC(c3ccccc3Cl)=NO2)sc2c1CCC2 (stereo not given)	-6.97		
O=C(c1ccc(Br)o1)N1CCN=C1SCc1cccc(F)c1	-4.05	18.4 µM [rising, single point]	
CCOC(=O)c1c(NC(=O)COc2cccc3c2CCN(Cc2ccc(F)cc2)C3=O)sc2c1CCC2	14.1	0.461 µM [rising, full curve, poor fit]	
O=C(NCc1ccc(F)cc1)c1cc(S(=O)(=O)N2CCOCC2)ccc1F	33.7	11.6 µM [rising, partial curve]	29.1 µM [rising, single point]
Nc1nc(SCC(=O)c2cc3ccccc3o2)n[nH]1	-11.9	0.259 µM [falling, full curve, poor fit]	
CC(NC(=O)Cn1cnc2c1c(=O)n(C)c(=O)n2C)c1ccccc1 (stereo not given)	17.7		
CC(C)[C@H](NC(=O)NCCc1ccc(F)cc1)C(=O)O		1.16 µM [rising, partial curve, poor fit]	0.0231 µM [rising, full curve, poor fit]
COc1ccc(-c2noc(CN(C)Cc3ccccc3)n2)c(OC)c1OC	-20.1	29.1 µM [rising, single point]	

Structure (SMILES)	cell number change [%]	AC50 [1]	AC50 [2]
Cc1ccc(-c2nn(Cc3ccccc3)cc2C(=O)NCC2CCCO2)cc1 (stereo not given)			2.91 µM [falling, partial curve, poor fit]
CC(C)CC(=O)Nc1cccc(-c2nc3ccccc3o2)c1		0.651 µM [rising, full curve, poor fit]	
CCOC(=O)C1(CCc2ccccc2)CCN(C(=O)CCc2cnccn2)CC1	12.8	2.31 µM [rising, partial curve]	
Cc1cc(C(=O)O)cc(Br)c1N	16	1.3 µM [falling, partial curve]	0.206 µM [falling, full curve, poor fit]
COc1ccc(S(=O)(=O)NC(C)C(=O)Nc2ccccc2C(F)(F)F)cc1 (stereo not given)	32.1	3.66 µM [rising, single point]	5.17 µM [rising, partial curve]
O=C1CN(C(=O)COC(=O)c2cnc(Cl)c(Cl)c2)c2ccccc2N1	-46.9	0.461 µM [falling, full curve]	29.1 µM [falling, single point]
Oc1ccccc1N=Cc1ccc[nH]1	18.1		
CCOC(=O)c1c(NC(=O)C(C)Sc2c[nH]c3ccccc23)sc2c1CCC2 (stereo not given)	3.44	0.461 µM [rising, partial curve]	
Cc1csc(NC(=O)CCn2c(=O)oc3ccc(Cl)cc32)n1	-34.8		
Cc1ccccc1CSc1[nH]c(=O)ncc1C	-3.13	0.058 µM [falling, full curve, poor fit]	
Cc1cccc(C(=O)NCCC(=O)Nc2ccc(C#N)cc2)c1	-1.32		
CCC(SC1=Nc2ccccc2C2=NC(CC(C)C)C(=O)N12)C(=O)Nc1ccc2c(c1)OCO2 (stereo not given)	-20.1	4.11 µM [falling, single point]	
O=c1[nH]c(/C=C/c2ccc3c(c2)OCO3)c([N+](=O)[O-])c(=O)[nH]1	-18.8	0.00461 µM [falling, full curve, poor fit]	
CC(C)(C)C1=NN(C(=O)c2ccccc2)C(O)(C(C)(C)C)C1 (stereo not given)	-39.1	18.4 µM [falling, single point]	9.2 µM [falling, partial curve]
CCOC(=O)CCP(=O)(O)C(O)c1ccc(OC)cc1 (stereo not given)	-0.972	6.51 µM [falling, partial curve, poor fit]	
COc1ccc(C2C=C(c3ccc(C)c(C)c3)Nc3ncnn32)c(OC)c1OC (stereo not given)	0.127	32.6 µM [falling, single point]	
CN(C)c1ccc(/C=C(\NC(=O)c2ccccc2)C(=O)NCc2cccnc2)cc1	6.67		
C#CCOCCOCCOCCNc1nc(N2CCN(C(=O)Cn3cc(CCCN=C(N)N)nn3)CC2)nc(N2CCN(C(=O)[C@H](CCCCN)n3cc(CCCC)nn3)CC2)n1	-24.8	20.6 µM [rising, single point]	0.116 µM [falling, full curve, poor fit]
CCOC(=O)C1CCCN(C(=O)c2cc(Cl)ccc2Cl)C1 (stereo not given)		0.58 µM [falling, single point]	1.03 µM [falling, single point]

A different layout for some results above:

| Structure (SMILES) | cell number change [%] | AC50 [1] | AC50 [2] |
| --- | --- | --- | --- |
| Cc1cccc(C(=O)NCCC(=O)Nc2ccc(C#N)cc2)c1 | -1.32 |  |  |
| CCC(SC1=Nc2ccccc2C2=NC(CC(C)C)C(=O)N12)C(=O)Nc1ccc2c(c1)OCO2 (stereo not given) | -20.1 | 4.11 µM [falling, single point] |  |
| O=c1[nH]c(/C=C/c2ccc3c(c2)OCO3)c([N+](=O)[O-])c(=O)[nH]1 | -18.8 | 0.00461 µM [falling, full curve, poor fit] |  |
